Further values from the same series stand in other lists.
Tests used:
Format in all cases: cell-based
Conditions in all cases: U-87MG ATCC
[1] = Inhibition of RTK/PI3K/AKT/mTOR signaling in human U87 cells assessed as up regulation of PLOD2 gene expression at cytotoxic IC50 measured after 48 hrs relative to control
[2] = Inhibition of RTK/PI3K/AKT/mTOR signaling in human U87 cells assessed as up regulation of transmembrane protein 241 gene expression at cytotoxic IC50 measured after 48 hrs relative to control
[3] = Inhibition of RTK/PI3K/AKT/mTOR signaling in human U87 cells assessed as up regulation of zinc finger protein 827 gene expression at cytotoxic IC50 measured after 48 hrs relative to control
[4] = Inhibition of RTK/PI3K/AKT/mTOR signaling in human U87 cells assessed as up regulation of NCK associated protein 5 like gene expression at cytotoxic IC50 measured after 48 hrs relative to control
[5] = Inhibition of RTK/PI3K/AKT/mTOR signaling in human U87 cells assessed as down regulation of PSMC1 gene expression at cytotoxic IC50 measured after 48 hrs relative to control
[6] = Inhibition of RTK/PI3K/AKT/mTOR signaling in human U87 cells assessed as down regulation of UFL1 gene expression at cytotoxic IC50 measured after 48 hrs relative to control
[7] = Inhibition of RTK/PI3K/AKT/mTOR signaling in human U87 cells assessed as down regulation of OSER1 gene expression at cytotoxic IC50 measured after 48 hrs relative to control
[8] = Inhibition of RTK/PI3K/AKT/mTOR signaling in human U87 cells assessed as up regulation of AT-rich interaction domain 3A gene expression at cytotoxic IC50 measured after 48 hrs relative to control
[9] = Inhibition of RTK/PI3K/AKT/mTOR signaling in human U87 cells assessed as down regulation of KLHDC10 gene expression at cytotoxic IC50 measured after 48 hrs relative to control
[10] = Inhibition of RTK/PI3K/AKT/mTOR signaling in human U87 cells assessed as up regulation of Kruppel like factor 3 gene expression at cytotoxic IC50 measured after 48 hrs relative to control
[11] = Inhibition of RTK/PI3K/AKT/mTOR signaling in human U87 cells assessed as up regulation of RPL5 gene expression at cytotoxic IC50 measured after 48 hrs relative to control
[12] = Inhibition of RTK/PI3K/AKT/mTOR signaling in human U87 cells assessed as down regulation of RAB3GAP2 gene expression at cytotoxic IC50 measured after 48 hrs relative to control
[13] = Inhibition of RTK/PI3K/AKT/mTOR signaling in human U87 cells assessed as down regulation of FAM161B gene expression at cytotoxic IC50 measured after 48 hrs relative to control
[14] = Inhibition of RTK/PI3K/AKT/mTOR signaling in human U87 cells assessed as up regulation of signal peptidase complex subunit 3 gene expression at cytotoxic IC50 measured after 48 hrs relative to control
[15] = Inhibition of RTK/PI3K/AKT/mTOR signaling in human U87 cells assessed as up regulation of signal transducer and activator of transcription 6 gene expression at cytotoxic IC50 measured after 48 hrs relative to control
[16] = Inhibition of RTK/PI3K/AKT/mTOR signaling in human U87 cells assessed as down regulation of WDR26 gene expression at cytotoxic IC50 measured after 48 hrs relative to control
[17] = Inhibition of RTK/PI3K/AKT/mTOR signaling in human U87 cells assessed as down regulation of ZNF267 gene expression at cytotoxic IC50 measured after 48 hrs relative to control
[18] = Inhibition of RTK/PI3K/AKT/mTOR signaling in human U87 cells assessed as up regulation of ring finger protein 187 gene expression at cytotoxic IC50 measured after 48 hrs relative to control
[19] = Inhibition of RTK/PI3K/AKT/mTOR signaling in human U87 cells assessed as down regulation of CA8 gene expression at cytotoxic IC50 measured after 48 hrs relative to control
[20] = Inhibition of RTK/PI3K/AKT/mTOR signaling in human U87 cells assessed as down regulation of SLC27A4 gene expression at cytotoxic IC50 measured after 48 hrs relative to control
[21] = Inhibition of RTK/PI3K/AKT/mTOR signaling in human U87 cells assessed as up regulation of RPL23 gene expression at cytotoxic IC50 measured after 48 hrs relative to control
[22] = Inhibition of RTK/PI3K/AKT/mTOR signaling in human U87 cells assessed as down regulation of PEG10 gene expression at cytotoxic IC50 measured after 48 hrs relative to control
[23] = Inhibition of RTK/PI3K/AKT/mTOR signaling in human U87 cells assessed as down regulation of CPNE3 gene expression at cytotoxic IC50 measured after 48 hrs relative to control
[24] = Inhibition of RTK/PI3K/AKT/mTOR signaling in human U87 cells assessed as up regulation of QKI, KH domain containing RNA binding gene expression at cytotoxic IC50 measured after 48 hrs relative to control
[25] = Inhibition of RTK/PI3K/AKT/mTOR signaling in human U87 cells assessed as down regulation of ESCO2 gene expression at cytotoxic IC50 measured after 48 hrs relative to control
[26] = Inhibition of RTK/PI3K/AKT/mTOR signaling in human U87 cells assessed as up regulation of Fanconi anemia complementation group C gene expression at cytotoxic IC50 measured after 48 hrs relative to control
[27] = Inhibition of RTK/PI3K/AKT/mTOR signaling in human U87 cells assessed as down regulation of LRPAP1 gene expression at cytotoxic IC50 measured after 48 hrs relative to control
[28] = Inhibition of RTK/PI3K/AKT/mTOR signaling in human U87 cells assessed as up regulation of lysine demethylase 4B gene expression at cytotoxic IC50 measured after 48 hrs relative to control
[29] = Inhibition of RTK/PI3K/AKT/mTOR signaling in human U87 cells assessed as up regulation of transmembrane protein 38A gene expression at cytotoxic IC50 measured after 48 hrs relative to control
[30] = Inhibition of RTK/PI3K/AKT/mTOR signaling in human U87 cells assessed as up regulation of ceramide kinase gene expression at cytotoxic IC50 measured after 48 hrs relative to control
[31] = Inhibition of RTK/PI3K/AKT/mTOR signaling in human U87 cells assessed as up regulation of TNFSF18 gene expression at cytotoxic IC50 measured after 48 hrs relative to control
[32] = Inhibition of RTK/PI3K/AKT/mTOR signaling in human U87 cells assessed as down regulation of ZBTB43 gene expression at cytotoxic IC50 measured after 48 hrs relative to control

CC(=O)C(=NNc1ccccc1C#N)C(C)=O
log2FC [1]: 1.89
log2FC [2]: 1.35
log2FC [3]: 1.38
log2FC [4]: 0.867
log2FC [5]: -0.758
log2FC [6]: -0.866
log2FC [7]: -0.876
log2FC [8]: 0.708
log2FC [9]: -0.45
log2FC [10]: 0.985
log2FC [11]: 0.44
log2FC [12]: -0.753
log2FC [13]: -1.15
log2FC [14]: 0.814
log2FC [15]: 1.08
log2FC [16]: -0.786
log2FC [17]: -1.9
log2FC [18]: 0.773
log2FC [19]: -3.5
log2FC [20]: -0.832
log2FC [21]: 0.473
log2FC [22]: -1.38
log2FC [23]: -0.392
log2FC [24]: 0.858
log2FC [25]: -1.55
log2FC [26]: 1.18
log2FC [27]: -0.445
log2FC [28]: 0.873
log2FC [29]: 0.911
log2FC [30]: 1.18
log2FC [31]: 4.3
log2FC [32]: -1.42

Source: ChEMBL document CHEMBL4316593 (Eur J Med Chem, 2019)
